Measurements from PMC10449177.
Results are given in words; binding and its absence hold for the method and conditions named. Binding seen in cells or lysates may run through a third protein. Some results given as binding are weak or reduced against the parent protein; the word gives no strength.

Sequences of proteins named here, by UniProt entry; tags and fusion partners are left off.
UniProt P25106: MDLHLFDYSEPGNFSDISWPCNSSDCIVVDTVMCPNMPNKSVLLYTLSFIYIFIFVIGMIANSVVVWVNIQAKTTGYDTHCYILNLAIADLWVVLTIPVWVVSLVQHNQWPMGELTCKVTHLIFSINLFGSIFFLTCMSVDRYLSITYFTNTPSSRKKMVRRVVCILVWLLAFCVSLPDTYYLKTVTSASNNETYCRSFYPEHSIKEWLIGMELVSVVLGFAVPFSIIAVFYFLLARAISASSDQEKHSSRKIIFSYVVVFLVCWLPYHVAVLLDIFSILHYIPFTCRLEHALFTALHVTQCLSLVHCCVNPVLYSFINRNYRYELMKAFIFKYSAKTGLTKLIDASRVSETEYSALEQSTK

Molecular target: CXCR7 (human (endogenous in H1 and H9 human ESCs)) (UniProt P25106)
Assay: co-IP; endogenous proteins in human ESC lysate (IP lysis buffer); 2 ug antibody (MIF antibody, or CXCR7 antibody for the reverse IP) with protein A/G beads overnight at 4°C; washed three times; Western blot; IgG as negative control

B1: Macrophage migration inhibitory factor (protein, UniProt P14174 1-115)
chain: MPMFIVNTNVPRASVPDGFLSELTQQLAQATGKPPQYIAVHVVPDQLMAFGGSSEPCALCSLHSIGKIGGAQNRSYSKLLCGLLAERLRISPDRVYINYYDMNAANVGWNNSTFA
binding: binds
